Measured values: paper doi:10.1101/170100
Read-outs that look alike come from different tables or passages of the source. Results are given in words; binding and its absence hold for the method and conditions named. Binding seen in cells or lysates may run through a third protein. Some results given as binding are weak or reduced against the parent protein; the word gives no strength.

Chains of the proteins cited; added tags and fusions are not shown.
UniProt O09032: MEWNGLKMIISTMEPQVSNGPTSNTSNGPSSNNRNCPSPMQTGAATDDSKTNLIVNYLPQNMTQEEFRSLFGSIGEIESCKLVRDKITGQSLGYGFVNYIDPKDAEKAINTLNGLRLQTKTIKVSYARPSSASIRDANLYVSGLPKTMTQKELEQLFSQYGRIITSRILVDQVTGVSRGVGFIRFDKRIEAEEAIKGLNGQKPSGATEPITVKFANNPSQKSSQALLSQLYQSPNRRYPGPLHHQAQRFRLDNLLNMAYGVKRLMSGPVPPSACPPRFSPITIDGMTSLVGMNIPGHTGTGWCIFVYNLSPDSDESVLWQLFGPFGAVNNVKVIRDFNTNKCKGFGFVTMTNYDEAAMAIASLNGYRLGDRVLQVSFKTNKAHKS
UniProt Q9QZ81: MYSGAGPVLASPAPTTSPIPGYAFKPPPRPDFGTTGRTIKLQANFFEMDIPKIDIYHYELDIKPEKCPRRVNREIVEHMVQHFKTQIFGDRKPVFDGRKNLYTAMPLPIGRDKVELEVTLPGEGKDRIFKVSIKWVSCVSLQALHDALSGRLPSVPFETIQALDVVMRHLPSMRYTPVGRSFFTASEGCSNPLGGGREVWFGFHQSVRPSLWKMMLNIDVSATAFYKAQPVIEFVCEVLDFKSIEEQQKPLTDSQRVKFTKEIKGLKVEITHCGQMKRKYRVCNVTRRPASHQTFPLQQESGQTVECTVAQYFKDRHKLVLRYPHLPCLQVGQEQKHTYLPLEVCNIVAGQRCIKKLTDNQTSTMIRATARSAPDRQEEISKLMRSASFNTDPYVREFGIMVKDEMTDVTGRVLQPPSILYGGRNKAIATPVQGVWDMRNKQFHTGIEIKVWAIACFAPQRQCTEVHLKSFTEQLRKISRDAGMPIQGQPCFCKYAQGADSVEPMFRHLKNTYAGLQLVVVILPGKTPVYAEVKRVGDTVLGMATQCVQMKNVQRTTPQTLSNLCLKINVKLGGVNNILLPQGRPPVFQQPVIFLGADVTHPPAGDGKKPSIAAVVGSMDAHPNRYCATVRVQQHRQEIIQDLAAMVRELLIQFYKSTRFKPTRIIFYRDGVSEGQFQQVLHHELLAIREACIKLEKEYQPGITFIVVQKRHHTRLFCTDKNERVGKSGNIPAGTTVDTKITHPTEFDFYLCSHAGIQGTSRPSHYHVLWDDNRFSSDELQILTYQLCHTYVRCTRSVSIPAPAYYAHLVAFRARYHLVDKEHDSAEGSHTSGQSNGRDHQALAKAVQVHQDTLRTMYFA

Legend:
[1] = target: T1, Upf1 (rat (endogenous in sympathetic neurons of Sprague Dawley rats and in PC12 cells)); assay: co-IP
T1 sequence: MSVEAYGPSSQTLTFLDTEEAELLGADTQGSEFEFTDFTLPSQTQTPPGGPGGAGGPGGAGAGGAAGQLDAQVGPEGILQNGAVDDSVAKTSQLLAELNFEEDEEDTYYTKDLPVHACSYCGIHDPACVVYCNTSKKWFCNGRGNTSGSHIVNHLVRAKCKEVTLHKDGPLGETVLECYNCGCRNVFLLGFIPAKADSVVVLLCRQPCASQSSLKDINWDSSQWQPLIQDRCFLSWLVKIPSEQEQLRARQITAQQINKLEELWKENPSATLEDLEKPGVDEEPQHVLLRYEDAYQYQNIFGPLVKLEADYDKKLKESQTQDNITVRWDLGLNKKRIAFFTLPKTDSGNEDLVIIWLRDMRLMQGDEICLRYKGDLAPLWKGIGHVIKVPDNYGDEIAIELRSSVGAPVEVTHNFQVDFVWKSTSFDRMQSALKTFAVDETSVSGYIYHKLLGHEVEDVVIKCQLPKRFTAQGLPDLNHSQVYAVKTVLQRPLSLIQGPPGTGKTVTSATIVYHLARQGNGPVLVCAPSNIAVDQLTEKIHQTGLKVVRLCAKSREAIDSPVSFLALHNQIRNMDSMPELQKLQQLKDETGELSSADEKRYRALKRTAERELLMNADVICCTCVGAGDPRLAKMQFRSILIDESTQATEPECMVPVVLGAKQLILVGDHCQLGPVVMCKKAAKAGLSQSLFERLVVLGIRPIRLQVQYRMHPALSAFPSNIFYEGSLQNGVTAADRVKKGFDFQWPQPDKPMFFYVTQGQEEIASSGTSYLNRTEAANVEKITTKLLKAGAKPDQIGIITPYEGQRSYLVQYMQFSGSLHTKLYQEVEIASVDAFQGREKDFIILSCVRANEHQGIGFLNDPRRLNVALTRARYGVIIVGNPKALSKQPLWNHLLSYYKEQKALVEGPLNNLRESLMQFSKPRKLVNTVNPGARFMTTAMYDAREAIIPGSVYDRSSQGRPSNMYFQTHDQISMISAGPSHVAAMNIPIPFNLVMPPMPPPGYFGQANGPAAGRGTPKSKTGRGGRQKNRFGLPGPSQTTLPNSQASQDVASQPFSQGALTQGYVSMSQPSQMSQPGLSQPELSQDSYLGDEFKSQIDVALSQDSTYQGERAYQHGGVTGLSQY

[2] = target: T1, Upf1 (rat (endogenous in sympathetic neurons of Sprague Dawley rats and in PC12 cells)); assay: co-IP; remark: listed apart in the source

binding [1]	binding [2]	Substance
binds	binds	ELAV-like protein 4 (from UniProt O09032 1-385)
binds	binds	argonaute-2 (from UniProt Q9QZ81 1-860)
